Measured values published in article PMC10881513.

Target: ASFV RNA polymerase subunit vRPB2 with N-terminal TEV-cleavable His-ZZ-tag (African swine fever virus, strain BA71V) (UniProt P42487)
Assay: affinity purification with mass spectrometry + SEC

With “ASFV RNA polymerase subunit vRPB1 (from UniProt P42486 1-1450)” the binding was “binds”.
For “ASFV RNA polymerase subunit vRPB10 (from UniProt P42488 1-80)”, the binding was “binds”.

Results are given in words; binding and its absence hold for the method and conditions named. In cells and extracts the contact can be indirect. Here binding means that the protein was enriched with, or labelled near, the bait; the list need not be complete.
